Experimental findings from patent US20130079280A1 are described below.

Sequences of proteins named here, by UniProt entry; tags and fusion partners are left off. Residues count along the entry.
UniProt P29965, residues 113-261: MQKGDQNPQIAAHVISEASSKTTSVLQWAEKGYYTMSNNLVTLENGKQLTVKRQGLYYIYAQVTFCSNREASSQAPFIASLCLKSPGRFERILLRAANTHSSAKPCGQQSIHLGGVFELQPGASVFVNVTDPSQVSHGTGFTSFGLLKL
UniProt O14763, residues 54-182: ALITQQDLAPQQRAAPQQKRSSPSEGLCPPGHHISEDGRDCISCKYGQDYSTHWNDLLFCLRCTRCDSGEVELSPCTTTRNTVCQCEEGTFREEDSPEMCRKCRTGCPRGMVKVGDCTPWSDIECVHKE

Results are given in words; binding and its absence hold for the method and conditions named. Some entries that bind do so weakly or less than the wild type.

Sequences and labels used below:
B1: C5 (1E11 & 79), bispecific tandem Tn3, linker length 8 (designed binder)
chain: AIEVKDVTDTTALITWAKPWVDPPPLWGCELAYGIKDVPGDRTTIDLQQKHTAYSIGNLKPDTEYEVSLICFDPYGAKSNPAKETFTTTRLDAPGQIEVKDVTDTTALITWIPPHNADSSIIGCELTYGIKDVPGDRTTIDLYDVAFDYSIGNLKPDTEYEVSLICDTFYGFDSNPAKETFTTGGGTLGHHHHHHHH
B2: C8 (1E11 & 79), bispecific tandem Tn3, linker length 23 (designed binder)
chain: AIEVKDVTDTTALITWAKPWVDPPPLWGCELAYGIKDVPGDRTTIDLQQKHTAYSIGNLKPDTEYEVSLICFDPYGAKSNPAKETFTTGGGGSGGGGSGGGGSRLDAPGQIEVKDVTDTTALITWIPPHNADSSIIGCELTYGIKDVPGDRTTIDLYDVAFDYSIGNLKPDTEYEVSLICDTFYGFDSNPAKETFTTGGGTLGHHHHHHHH
B3: C7 (1E11 & 79), bispecific tandem Tn3, linker length 18 (designed binder)
chain: AIEVKDVTDTTALITWAKPWVDPPPLWGCELAYGIKDVPGDRTTIDLQQKHTAYSIGNLKPDTEYEVSLICFDPYGAKSNPAKETFTTGGGGSGGGGSRLDAPGQIEVKDVTDTTALITWIPPHNADSSIIGCELTYGIKDVPGDRTTIDLYDVAFDYSIGNLKPDTEYEVSLICDTFYGFDSNPAKETFTTGGGTLGHHHHHHHH
B4: C6 (1E11 & 79), bispecific tandem Tn3, linker length 13 (designed binder)
chain: AIEVKDVTDTTALITWAKPWVDPPPLWGCELAYGIKDVPGDRTTIDLQQKHTAYSIGNLKPDTEYEVSLICFDPYGAKSNPAKETFTTGGGGSRLDAPGQIEVKDVTDTTALITWIPPHNADSSIIGCELTYGIKDVPGDRTTIDLYDVAFDYSIGNLKPDTEYEVSLICDTFYGFDSNPAKETFTTGGGTLGHHHHHHHH
B5: 79, monovalent human CD40L-specific Tn3 (designed binder)
chain: IEVKDVTDTTALITWIPPHNADSSIIGCELTYGIKDVPGDRTTIDLYDVAFDYSIGNLKPDTEYEVSLICDTFYGFDSNPAKETFTTGGGTLGHHHHHHHH

For the first experiment, the target named is Human CD40L, recombinant (E. coli produced) (human) (UniProt P29965). In words: AlphaScreen. Background: Alpha assays give light when donor and acceptor beads are brought close together.
As to B1, the binding result is listed as “binds”.

As for B2, the binding entry is reported as “binds”.

Turning to B3, the binding result is “binds”.

As for B4, the binding result is recorded as “binds”.

For a further experiment, the target named is human TRAIL R2-Fc fusion protein (human) (UniProt O14763). In words: AlphaScreen.
On to B1, for which the binding entry is given as “binds”.

On to B2, for which the binding entry is “binds”.

As to B3, the binding entry is “binds”.

With B4, the binding result was “binds”.

For a further experiment, the target named is Human CD40L, recombinant (E. coli produced) (human) (UniProt P29965). In words: capture ELISA.
B1: the binding result is “binds”.

B2: the binding result is reported as “binds”.

Turning to B3, the binding result is reported as “binds”.

Take B4: the binding entry is listed as “binds”.

The target in the next experiment is TRAIL R2, recombinant (format not stated) (human) (UniProt O14763). In words: capture ELISA.
For B1, the binding entry is “binds”.

Turning to B2, the binding result is listed as “binds”.

Take B3: the binding entry was “binds”.

For B4, the binding entry was “binds”.

For a further experiment the target is unchanged. In words: capture ELISA; Tn3 captured on anti-His, biotinylated TRAIL R2. For orientation: In an ELISA, binding on a coated surface is turned into a signal by an enzyme label.
Regarding B1, the binding result is “binds”.

Take B2: the binding result is on record as “binds”.

In the case of B3, the binding entry is “binds”.

For the molecule B4, the binding result was “binds”.

The target of a further experiment is Human CD40L, recombinant (E. coli produced) (human) (UniProt P29965). In words: capture ELISA; Tn3 captured on anti-His, HuCD40L/biotinylated anti-His complex.
B1: the binding entry is reported as “binds”.

Turning to B2, the binding entry is given as “binds”.

Regarding B5, the binding entry is “binds”.

For the molecule B3, the binding result is given as “binds”.

Regarding B4, the binding entry is “binds”.

For another experiment the target is unchanged. In words: AlphaScreen; 10 nM TRAIL R2-Fc and 50 nM biotinylated HuCD40L, simultaneous binding.
Turning to B1, the binding entry is reported as “binds”.

With B2, the binding result is given as “binds”.

As to B3, the binding result is reported as “binds”.

With B4, the binding result was “binds”.

The next experiment concerns the target human TRAIL R2-Fc fusion protein (human) (UniProt O14763). The experiment is described as above.
Take B1: the binding entry is given as “binds”.

For the molecule B2, the binding entry was “binds”.

On to B3, for which the binding result is on record as “binds”.

As for B4, the binding result is on record as “binds”.

The next experiment shares this target. In words: capture ELISA: His-tagged construct captured from E. coli media on anti-His antibody, biotinylated TRAIL R2 (axis: TrailR2-Fc) titrated, streptavidin-HRP/TMB.
Take B1: the binding result is “binds”.

With B2, the binding result was “binds”.

As to B3, the binding entry is listed as “binds”.

Turning to B4, the binding result is on record as “binds”.

Another experiment addresses Human CD40L, recombinant (E. coli produced) (human) (UniProt P29965). In words: capture ELISA: His-tagged construct captured from E. coli media on anti-His antibody, His-tagged HuCD40L preincubated with biotinylated anti-His antibody titrated, streptavidin-HRP/TMB.
In the case of B1, the binding result is “binds”.

B2: the binding result is reported as “binds”.

Take B5: the binding entry is “binds”.

Consider B3, for which the binding entry is “binds”.

Consider B4, for which the binding entry is reported as “binds”.

A further experiment has the same target. Put plainly: AlphaScreen bridging assay: diluted E. coli media, 10 nM TRAIL R2-Fc (Protein A acceptor beads) and 50 nM biotinylated HuCD40L (streptavidin donor beads); signal needs both targets bound at once.
Regarding B1, the binding entry is given as “binds”.

On to B2, for which the binding result was “binds”.

Consider B3, for which the binding entry is given as “binds”.

Regarding B4, the binding result is “binds”.

Another experiment concerns the target human TRAIL R2-Fc fusion protein (human) (UniProt O14763). The description is as above.
Take B1: the binding result is on record as “binds”.

In the case of B2, the binding entry is reported as “binds”.

On to B3, for which the binding entry is “binds”.

As for B4, the binding result is recorded as “binds”.
